These results are taken from EP4830731A1, “TUMOR MICROENVIRONMENT-ACTIVATED DRUG CONJUGATE AND ANTIBODY-DRUG CONJUGATE” (dated 2026).

The structures given here were assigned with low confidence; some may be wrong.

Data set [1] can be described thus: Aqueous solution stability (HPLC). The conditions noted are these: content relative to 0 hour by HPLC, 0.2 µmol/mL in DMSO/water, water bath 25 °C / 37 °C. The method, then: Each drug conjugate compound was accurately weighed and dissolved in a certain amount of DMSO to prepare a stock solution at a concentration of 10 µmol/mL. Then, 10 µL of the stock solution was added to 80 µL of DMSO to dilute to a concentration of 1 µmol/mL, and then further diluted with pure water at a ratio of 1:4 to achieve a sample solution concentration of 0.2 µmol/mL. After the sample became clear, it was placed in a water bath at 25 °C / 37 °C. Samples were taken at 0 hour and 24 hours and analyzed by HPLC (Agilent 1260, column: Eclipse Plus C18, 4.6×250 mm, 5 µm; mobile phase A: 0.1% TFA + H2O; mobile phase B: CH3CN; flow rate: 1.0 mL/min; column temperature: 30 °C; detection wavelength: 214 nm) to determine the content of the drug conjugate relative to that at 0 hour, thereby obtaining the solution stability data of the different compounds.

A short description of data set [2]: Human plasma stability (HPLC). The conditions noted are these: 37 °C. The procedure: An appropriate amount of sample was weighed and dissolved in DMSO to prepare a 1 mM solution. Human plasma was added at a volume ratio of 1:9, and the mixture was incubated in an incubator at 37 °C. Aliquots were taken at 0, 2, 4, 6, and 24 hours, and DMSO/MeOH (1:1) was added at a volume ratio of 1:3 to remove proteins. The mixture was centrifuged at 12000 rpm for 5 minutes, and the supernatant was collected. The HPLC analysis was performed using the method described above (Agilent 1260, column: Eclipse Plus C18, 4.6 * 250 mm, 5 µm; mobile phase A: 0.1% TFA + H2O; mobile phase B: CH3CN; flow rate: 1.0 mL/min; column temperature: 30 °C; detection wavelength: 214 nm).

Data set [3] concerns acidified CT-26 tumor tissue homogenate. Put plainly: Enzymatic cleavage (activation) in tumor tissue homogenate. The conditions noted are these: acidified CT-26 tumor tissue homogenate pH 5.0, 37°C, released drug by HPLC. The procedure: A certain amount of the drug conjugates were weighed, dissolved, and diluted tenfold to a concentration of 0.1 mM/ml. The drug conjugates were added at a concentration of 1 mg/ml to 100 µg of acidified CT-26 tumor tissue homogenate (pH 5.0) at 37°C. The enzymes in the tumor tissue homogenate were able to release the drug, and the released drug was detected by HPLC to compare the activation efficiency of the linker in the tumor tissue.

Data set [4] in a line: Lung tissue homogenate stability (Dxd release). The conditions noted are these: pH 5.0, 37°C. The method, then:
Detection buffer: 25 mM MES, pH 5.0.
Protein precipitant: DMSO/MeOH = 1:1.
Preparation of sample solution: Appropriate amounts of 6PEG-lys(MI-6PEG)-AAN-AM-Dxd and EMC-GGFG-AM-Dxd were weighed and a certain amount of DMSO was added to prepare a stock solution at a concentration of 10 µmol/mL. Then, 10 µL of the stock solution was taken and diluted with 80 µL of DMSO to a concentration of 1 µmol/mL, and then further diluted with pure water at a ratio of 1:4 to achieve a sample solution concentration of 0.2 µmol/mL.
An appropriate amount of flash-frozen lung in liquid nitrogen was placed in a 4 mL EP tube, weighed, and the detection buffer (pH 5.0) was added at a mass-to-volume ratio of 1:5. The tissue was homogenized for 3 min using a tissue grinder, and then the lung tissue homogenate was centrifuged at 12000 rpm for 5 min. The supernatant was collected and stored in a -40°C refrigerator for later use.
The sample solution and the lung tissue homogenate were shaken thoroughly at a volume ratio of 1:9. Another sample solution and the buffer (pH 5.0) were shaken thoroughly at a volume ratio of 1:9 as a blank control solution. The mixtures were placed in a 37°C constant temperature water bath. The sample was taken at 0 h, 2 h, 4 h, and 20 h, 30 µL, respectively, and 90 µL of the protein precipitant was added, the mixture was shaken thoroughly, centrifuged at 12000 rpm for 5 min, the supernatant was transferred to a sampling vial, and HPLC injection was performed.
The percentage of DXD released after the drug entered the lung tissue homogenate was calculated using the following formula: [formula]

As for `CCCCc1nc2c(N)nc3ccccc3c2n1CCCCNC(=O)OCc1ccc(NC(=O)[C@H](CC(N)=O)NC(=O)[C@H](C)NC(=O)[C@H](C)NC(=O)CCOCCOCCOCCOCCOCCOCCNC(=O)CCN2C(=O)C=CC2=O)cc1`, the “Aqueous solution stability % (24 h)” value in data set [1] came to 95%. Further, the “Plasma stability % (24 h)” value in data set [2] is 88%. In addition, in data set [3], the “Enzymatic cleavage efficiency % (2 h)” value came to 90%.

For `CC[C@@]1(O)C(=O)OCc2c1cc1n(c2=O)Cc2c-1nc1cc(F)c(C)c3c1c2[C@@H](NC(=O)COCNC(=O)[C@H](CC(N)=O)NC(=O)[C@H](C)NC(=O)[C@H](C)NC(=O)CCCCCN1C(=O)C=CC1=O)CC3`, the “Aqueous solution stability % (24 h)” value in data set [1] amounted to 99%. For the same compound, in data set [2], the “Plasma stability % (24 h)” value is given as 100%. In data set [3], the “Enzymatic cleavage efficiency % (2 h)” value turned out to be 95%.

As to `CC[C@@]1(O)C(=O)OCc2c1cc1n(c2=O)Cc2c-1nc1cc(F)c(C)c3c1c2[C@@H](NC(=O)COCNC(=O)[C@H](CC(N)=O)NC(=O)[C@H](C)NC(=O)[C@H](C)NC(=O)[C@H](CCCCNC(=O)CCCCCN1C(=O)C=CC1=O)NC(=O)COCCOCCOCCOCCOCCOC)CC3`, the “Aqueous solution stability % (24 h)” value in data set [1] is recorded as 100%. In data set [2], the “Plasma stability % (24 h)” value was 98%. Further, the “Enzymatic cleavage efficiency % (2 h)” value in data set [3] was determined as 97%.

In the case of `CC[C@@]1(O)C(=O)OCc2c1cc1n(c2=O)Cc2c-1nc1cc(F)c(C)c3c1c2[C@@H](NC(=O)COCNC(=O)[C@H](CC(N)=O)NC(=O)[C@H](C)NC(=O)[C@H](C)NC(=O)CCOCCOCCOCCOCCOCCOCCNC(=O)CCN1C(=O)C=CC1=O)CC3`, the “Aqueous solution stability % (24 h)” value in data set [1] was determined as 100%. Besides, the “Plasma stability % (24 h)” value in data set [2] came out at 99%. Moreover, the “Enzymatic cleavage efficiency % (2 h)” value in data set [3] is 98%.

As to `CC[C@@]1(O)C(=O)OCc2c1cc1n(c2=O)Cc2c-1nc1cc(F)c(C)c3c1c2[C@@H](NC(=O)COCNC(=O)CNC(=O)[C@H](Cc1ccccc1)NC(=O)CNC(=O)CNC(=O)CCCCCN1C(=O)C=CC1=O)CC3`, the “Dxd (%)” value came out at 1.47% in data set [4] (Time 0 h), 3.39% in data set [4] (Time 2 h), 14.58% in data set [4] (Time 4 h) and 30.93% in data set [4] (Time 20 h).

On to `CC[C@@]1(O)C(=O)OCc2c1cc1n(c2=O)Cc2c-1nc1cc(F)c(C)c3c1c2[C@@H](NC(=O)COCNC(=O)[C@H](CC(N)=O)NC(=O)[C@H](C)NC(=O)[C@H](C)NC(=O)[C@H](CCCCNC(=O)COCCOCCOCCOCCOCCOC)NC(=O)CCCCCN1C(=O)C=CC1=O)CC3`, for which the “Aqueous solution stability % (24 h)” value in data set [1] came to 100%. In addition, the “Plasma stability % (24 h)” value in data set [2] is reported as 98%. Moreover, the “Enzymatic cleavage efficiency % (2 h)” value in data set [3] is 98%.

As to `CCCCc1nc2c(N)nc3ccccc3c2n1CCCCNC(=O)OCc1ccc(NC(=O)[C@H](CC(N)=O)NC(=O)[C@H](C)NC(=O)[C@H](C)NC(=O)CCCCCN2C(=O)C=CC2=O)cc1`, in data set [1], the “Aqueous solution stability % (24 h)” value turned out to be 95%. In addition, the “Plasma stability % (24 h)” value in data set [2] worked out at 85%. Also, the “Enzymatic cleavage efficiency % (2 h)” value in data set [3] worked out at 90%.

`CCOCc1nc2c(NC(=O)[C@H](CC(N)=O)NC(=O)[C@H](C)NC(=O)[C@H](C)NC(=O)CCOCCOCCOCCOCCOCCOCCNC(=O)CCN3C(=O)C=CC3=O)nc3ccccc3c2n1CC(C)(C)O`: the “Aqueous solution stability % (24 h)” value in data set [1] turned out to be 95%. Moreover, the “Plasma stability % (24 h)” value in data set [2] is 85%. Also, the “Enzymatic cleavage efficiency % (2 h)” value in data set [3] came to 90%.

Take `CCCCc1nc2c(N)nc3ccccc3c2n1CCCCNC(=O)[C@H](CC(N)=O)NC(=O)[C@H](C)NC(=O)[C@H](C)NC(=O)CCOCCOCCOCCOCCOCCOCCNC(=O)CCN1C(=O)C=CC1=O`: the “Aqueous solution stability % (24 h)” value in data set [1] is reported as 99%. For the same compound, the “Plasma stability % (24 h)” value in data set [2] came out at 100%. Moreover, the “Enzymatic cleavage efficiency % (2 h)” value in data set [3] is 95%.

In the case of `CC[C@@]1(O)C(=O)OCc2c1cc1n(c2=O)Cc2c-1nc1cc(F)c(C)c3c1c2[C@@H](NC(=O)OCc1ccc(NC(=O)[C@H](CC(N)=O)NC(=O)[C@H](C)NC(=O)[C@H](C)NC(=O)CCOCCOCCOCCOCCOCCOCCNC(=O)CCN2C(=O)C=CC2=O)cc1)CC3`, the “Aqueous solution stability % (24 h)” value in data set [1] is reported as 95%. In data set [2], the “Plasma stability % (24 h)” value is on record as 88%. The “Enzymatic cleavage efficiency % (2 h)” value in data set [3] came out at 95%.
